Laboratory results published in the supplement of paper PMC10849652.
Some of the results follow.

Amino acid sequences for entries named in this document (tags omitted). A change or cut given only in a name is not applied to a line headed by its entry.
UniProt P32189: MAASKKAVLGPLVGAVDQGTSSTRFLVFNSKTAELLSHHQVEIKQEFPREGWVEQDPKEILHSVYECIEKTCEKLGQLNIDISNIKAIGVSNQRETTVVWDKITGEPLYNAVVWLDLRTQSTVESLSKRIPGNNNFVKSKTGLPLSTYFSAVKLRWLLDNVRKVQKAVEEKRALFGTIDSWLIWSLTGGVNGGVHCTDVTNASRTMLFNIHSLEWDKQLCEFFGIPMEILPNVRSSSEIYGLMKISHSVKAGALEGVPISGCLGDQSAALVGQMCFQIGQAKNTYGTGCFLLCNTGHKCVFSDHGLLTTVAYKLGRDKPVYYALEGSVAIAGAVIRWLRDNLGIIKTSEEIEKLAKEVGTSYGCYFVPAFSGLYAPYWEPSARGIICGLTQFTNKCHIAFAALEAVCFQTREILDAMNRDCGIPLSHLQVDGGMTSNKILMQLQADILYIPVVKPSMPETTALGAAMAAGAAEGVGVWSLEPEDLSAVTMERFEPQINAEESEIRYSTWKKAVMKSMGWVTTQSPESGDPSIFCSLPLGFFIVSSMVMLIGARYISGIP
UniProt Q9BRT9, whole entry, looked up: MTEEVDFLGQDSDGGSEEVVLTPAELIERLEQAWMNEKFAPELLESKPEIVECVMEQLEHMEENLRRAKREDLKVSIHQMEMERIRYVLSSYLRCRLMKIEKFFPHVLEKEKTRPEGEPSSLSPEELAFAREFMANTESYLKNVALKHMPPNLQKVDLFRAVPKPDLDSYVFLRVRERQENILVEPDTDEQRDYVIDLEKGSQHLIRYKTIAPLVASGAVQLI
UniProt Q14789: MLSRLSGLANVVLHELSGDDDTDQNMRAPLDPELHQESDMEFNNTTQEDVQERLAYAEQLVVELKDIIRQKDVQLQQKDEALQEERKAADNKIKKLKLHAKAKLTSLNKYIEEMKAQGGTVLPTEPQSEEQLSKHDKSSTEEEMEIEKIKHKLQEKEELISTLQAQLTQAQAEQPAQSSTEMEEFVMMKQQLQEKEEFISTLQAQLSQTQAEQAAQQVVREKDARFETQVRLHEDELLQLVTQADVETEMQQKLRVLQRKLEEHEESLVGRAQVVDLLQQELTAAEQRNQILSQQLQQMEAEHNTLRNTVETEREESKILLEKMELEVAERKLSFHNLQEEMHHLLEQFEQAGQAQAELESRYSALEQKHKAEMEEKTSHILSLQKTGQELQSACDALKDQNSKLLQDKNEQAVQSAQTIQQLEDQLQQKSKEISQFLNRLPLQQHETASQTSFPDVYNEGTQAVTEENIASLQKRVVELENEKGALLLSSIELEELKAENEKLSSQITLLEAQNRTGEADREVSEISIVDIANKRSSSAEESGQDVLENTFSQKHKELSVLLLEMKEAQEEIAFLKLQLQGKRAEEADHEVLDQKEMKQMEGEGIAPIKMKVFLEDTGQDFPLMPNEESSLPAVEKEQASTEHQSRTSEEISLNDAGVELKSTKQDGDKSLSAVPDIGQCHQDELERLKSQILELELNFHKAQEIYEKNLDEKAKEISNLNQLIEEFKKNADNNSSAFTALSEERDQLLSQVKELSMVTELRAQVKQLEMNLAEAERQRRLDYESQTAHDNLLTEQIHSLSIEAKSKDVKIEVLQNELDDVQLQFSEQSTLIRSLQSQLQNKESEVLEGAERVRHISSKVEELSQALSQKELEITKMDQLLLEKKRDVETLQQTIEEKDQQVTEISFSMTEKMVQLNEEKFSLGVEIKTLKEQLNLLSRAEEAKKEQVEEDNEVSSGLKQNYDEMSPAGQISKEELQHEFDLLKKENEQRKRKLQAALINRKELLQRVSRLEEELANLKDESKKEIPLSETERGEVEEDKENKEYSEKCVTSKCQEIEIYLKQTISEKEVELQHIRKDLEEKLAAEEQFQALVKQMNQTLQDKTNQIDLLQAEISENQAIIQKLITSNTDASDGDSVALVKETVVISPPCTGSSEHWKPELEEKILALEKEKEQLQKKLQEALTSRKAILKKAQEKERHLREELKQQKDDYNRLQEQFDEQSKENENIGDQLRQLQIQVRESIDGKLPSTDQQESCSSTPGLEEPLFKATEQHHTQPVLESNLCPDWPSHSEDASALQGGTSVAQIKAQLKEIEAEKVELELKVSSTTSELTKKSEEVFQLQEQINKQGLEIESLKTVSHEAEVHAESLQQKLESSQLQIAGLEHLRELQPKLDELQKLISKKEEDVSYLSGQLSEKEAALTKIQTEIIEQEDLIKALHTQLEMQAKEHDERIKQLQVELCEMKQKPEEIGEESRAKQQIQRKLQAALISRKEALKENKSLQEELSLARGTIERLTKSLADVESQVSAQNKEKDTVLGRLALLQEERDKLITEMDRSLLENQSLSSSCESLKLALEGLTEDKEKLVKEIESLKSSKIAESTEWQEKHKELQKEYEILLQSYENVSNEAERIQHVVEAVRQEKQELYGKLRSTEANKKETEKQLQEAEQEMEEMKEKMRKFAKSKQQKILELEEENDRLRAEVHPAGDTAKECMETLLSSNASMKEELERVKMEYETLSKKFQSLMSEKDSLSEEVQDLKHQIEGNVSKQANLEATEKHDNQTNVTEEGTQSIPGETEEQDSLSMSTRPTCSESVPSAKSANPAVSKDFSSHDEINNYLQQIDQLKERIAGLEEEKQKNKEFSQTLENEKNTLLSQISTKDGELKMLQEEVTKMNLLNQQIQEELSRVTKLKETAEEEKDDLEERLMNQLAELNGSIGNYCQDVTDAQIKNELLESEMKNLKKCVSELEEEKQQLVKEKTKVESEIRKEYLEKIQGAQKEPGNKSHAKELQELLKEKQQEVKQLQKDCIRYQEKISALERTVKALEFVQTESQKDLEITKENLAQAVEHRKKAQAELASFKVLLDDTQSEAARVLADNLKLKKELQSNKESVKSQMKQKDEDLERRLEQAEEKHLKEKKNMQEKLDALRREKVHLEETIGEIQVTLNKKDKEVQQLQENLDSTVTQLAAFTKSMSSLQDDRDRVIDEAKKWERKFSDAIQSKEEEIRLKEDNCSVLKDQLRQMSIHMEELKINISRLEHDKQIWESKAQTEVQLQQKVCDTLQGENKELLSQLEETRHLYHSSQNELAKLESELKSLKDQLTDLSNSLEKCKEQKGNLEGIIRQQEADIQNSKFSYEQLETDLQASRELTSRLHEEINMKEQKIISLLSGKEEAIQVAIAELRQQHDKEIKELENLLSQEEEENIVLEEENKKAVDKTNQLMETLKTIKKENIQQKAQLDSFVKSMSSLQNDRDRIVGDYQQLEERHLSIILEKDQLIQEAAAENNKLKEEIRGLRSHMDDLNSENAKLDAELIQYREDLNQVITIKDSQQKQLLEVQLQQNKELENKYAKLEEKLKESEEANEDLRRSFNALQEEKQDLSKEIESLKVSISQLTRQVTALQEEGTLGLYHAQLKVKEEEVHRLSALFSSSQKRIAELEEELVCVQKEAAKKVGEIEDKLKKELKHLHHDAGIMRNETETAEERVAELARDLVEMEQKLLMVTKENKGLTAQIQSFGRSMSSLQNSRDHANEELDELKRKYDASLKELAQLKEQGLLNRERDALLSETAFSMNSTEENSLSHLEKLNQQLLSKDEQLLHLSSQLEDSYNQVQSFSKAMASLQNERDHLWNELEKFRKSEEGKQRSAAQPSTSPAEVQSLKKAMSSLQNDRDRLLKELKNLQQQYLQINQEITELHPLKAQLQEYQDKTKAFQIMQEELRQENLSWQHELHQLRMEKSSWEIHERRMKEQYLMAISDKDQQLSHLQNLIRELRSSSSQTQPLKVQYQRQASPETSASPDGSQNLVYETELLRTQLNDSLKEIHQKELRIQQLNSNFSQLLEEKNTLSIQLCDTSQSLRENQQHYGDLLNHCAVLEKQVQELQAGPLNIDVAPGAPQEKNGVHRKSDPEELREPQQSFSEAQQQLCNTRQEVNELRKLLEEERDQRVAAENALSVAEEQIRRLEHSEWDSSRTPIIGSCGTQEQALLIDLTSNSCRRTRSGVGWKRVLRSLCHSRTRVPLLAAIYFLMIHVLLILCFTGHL
UniProt P29992, whole entry, looked up: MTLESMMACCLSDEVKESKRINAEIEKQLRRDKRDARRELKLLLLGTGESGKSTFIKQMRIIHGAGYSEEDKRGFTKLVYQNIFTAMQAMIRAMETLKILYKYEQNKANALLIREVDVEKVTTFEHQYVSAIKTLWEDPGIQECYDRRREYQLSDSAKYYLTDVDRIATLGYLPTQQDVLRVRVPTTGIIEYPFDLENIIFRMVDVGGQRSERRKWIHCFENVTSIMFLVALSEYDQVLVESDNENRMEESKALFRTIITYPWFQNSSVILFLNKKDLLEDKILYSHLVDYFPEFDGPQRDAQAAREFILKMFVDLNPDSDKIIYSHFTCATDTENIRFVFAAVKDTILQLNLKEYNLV
UniProt Q92896: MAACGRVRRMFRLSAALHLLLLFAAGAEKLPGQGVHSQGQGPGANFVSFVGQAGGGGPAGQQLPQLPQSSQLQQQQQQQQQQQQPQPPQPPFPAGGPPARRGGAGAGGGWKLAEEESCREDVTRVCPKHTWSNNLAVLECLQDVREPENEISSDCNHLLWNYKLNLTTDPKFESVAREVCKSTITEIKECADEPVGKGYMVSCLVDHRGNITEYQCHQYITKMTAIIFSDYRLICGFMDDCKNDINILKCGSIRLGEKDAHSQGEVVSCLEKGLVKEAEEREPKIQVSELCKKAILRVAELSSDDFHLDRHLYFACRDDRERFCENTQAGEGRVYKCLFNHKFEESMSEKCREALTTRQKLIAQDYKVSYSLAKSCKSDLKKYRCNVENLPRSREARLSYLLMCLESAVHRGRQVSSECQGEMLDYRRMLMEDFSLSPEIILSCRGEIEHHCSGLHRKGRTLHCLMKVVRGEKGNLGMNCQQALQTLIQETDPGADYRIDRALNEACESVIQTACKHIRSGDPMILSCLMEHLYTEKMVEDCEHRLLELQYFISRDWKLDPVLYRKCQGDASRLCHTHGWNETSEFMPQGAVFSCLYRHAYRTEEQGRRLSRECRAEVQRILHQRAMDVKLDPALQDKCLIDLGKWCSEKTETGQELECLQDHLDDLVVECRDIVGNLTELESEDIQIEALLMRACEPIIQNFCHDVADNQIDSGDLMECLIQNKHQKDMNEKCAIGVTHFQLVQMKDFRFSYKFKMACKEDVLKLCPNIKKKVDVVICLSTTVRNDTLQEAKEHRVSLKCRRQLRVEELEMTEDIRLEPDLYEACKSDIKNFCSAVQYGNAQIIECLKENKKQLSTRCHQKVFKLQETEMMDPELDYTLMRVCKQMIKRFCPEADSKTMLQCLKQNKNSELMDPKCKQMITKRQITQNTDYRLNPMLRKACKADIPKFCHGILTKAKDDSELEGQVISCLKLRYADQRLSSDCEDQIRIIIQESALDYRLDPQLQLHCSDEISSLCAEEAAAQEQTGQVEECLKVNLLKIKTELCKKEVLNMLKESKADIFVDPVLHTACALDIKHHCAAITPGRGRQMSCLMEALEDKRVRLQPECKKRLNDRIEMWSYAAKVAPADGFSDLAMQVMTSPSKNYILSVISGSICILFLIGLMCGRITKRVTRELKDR
UniProt Q8TDQ7: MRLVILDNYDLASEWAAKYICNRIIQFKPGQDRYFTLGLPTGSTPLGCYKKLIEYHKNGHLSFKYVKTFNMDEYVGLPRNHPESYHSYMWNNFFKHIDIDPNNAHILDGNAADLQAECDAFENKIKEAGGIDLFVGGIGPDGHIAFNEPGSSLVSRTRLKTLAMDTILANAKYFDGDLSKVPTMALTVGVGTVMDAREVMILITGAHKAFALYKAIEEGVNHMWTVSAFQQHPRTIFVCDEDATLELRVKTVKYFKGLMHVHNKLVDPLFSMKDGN
UniProt Q9NZ52: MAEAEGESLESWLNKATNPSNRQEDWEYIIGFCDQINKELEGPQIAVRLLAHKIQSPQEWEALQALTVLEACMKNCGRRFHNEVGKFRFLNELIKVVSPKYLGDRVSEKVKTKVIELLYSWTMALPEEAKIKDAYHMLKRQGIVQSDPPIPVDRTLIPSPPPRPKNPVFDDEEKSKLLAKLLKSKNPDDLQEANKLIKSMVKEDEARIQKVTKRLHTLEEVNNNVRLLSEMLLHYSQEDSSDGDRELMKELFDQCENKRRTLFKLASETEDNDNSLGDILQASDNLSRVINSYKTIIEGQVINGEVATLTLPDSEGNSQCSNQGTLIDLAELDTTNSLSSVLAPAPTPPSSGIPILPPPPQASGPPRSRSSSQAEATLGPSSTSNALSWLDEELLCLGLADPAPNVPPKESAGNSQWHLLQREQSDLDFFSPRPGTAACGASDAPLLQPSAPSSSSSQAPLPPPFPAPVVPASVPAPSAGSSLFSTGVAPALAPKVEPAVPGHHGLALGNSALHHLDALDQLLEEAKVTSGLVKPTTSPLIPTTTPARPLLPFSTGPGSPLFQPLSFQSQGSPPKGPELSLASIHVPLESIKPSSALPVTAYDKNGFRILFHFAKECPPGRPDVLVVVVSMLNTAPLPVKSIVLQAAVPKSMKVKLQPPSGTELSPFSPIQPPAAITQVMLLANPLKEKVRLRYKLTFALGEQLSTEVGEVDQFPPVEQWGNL

Legend:
Assay in all cases: log2 fold change, soluble protein after heating vs DMSO (PISA); higher = thermal stabilisation; K562 lysate, 10 uM; active = over 0.2 and 3.5 SD of the protein, either way, in both replicates (recomputed)
alvocidib = compound: CN1CC[C@H](c2c(O)cc(O)c3c(=O)cc(-c4ccccc4Cl)oc23)[C@H](O)C1 [alvocidib]
Outline: (§1)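 To prepare the extract, K562 pellets were dounce-homogenised in PBS pH 7.4 with 1 mM MgCl2, giving crude material at 1 mg/mL protein. This was treated with 10 μM compound for 30 min, then heated in aliquots for 3 min over 48°C-58°C before pooling and addition of NP-40 to 0.5% at 4°C. Centrifugation at 21,000xg for 90 min left soluble protein in the supernatant, which TMTpro 16plex LC-MS/MS quantified with equalised channel sums. Results are log-two fold changes in thermal stability compared with solvent controls, from duplicates.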

Tubastatin A = compound: CN1CCc2c(c3ccccc3n2Cc2ccc(C(=O)NO)cc2)C1 [Tubastatin A]
Outline: as §1

[1] = compound: CNC(=O)C1=CC=CC=C1NC2=NC(=NC=C2Cl)NC3=C(C=C(C=C3)N4CCOCC4)OC
Outline: as §1

defactinib = compound: CNC(=O)c1ccc(Nc2ncc(C(F)(F)F)c(NCc3nccnc3N(C)S(C)(=O)=O)n2)cc1 [defactinib]
Outline: as §1

[2] = compound: CNc1nc(-c2ccc3c(N)n[nH]c3c2)cc(N2C[C@@H](C(=O)NC3CCCCC3)CC[C@H]2C)n1
Outline: as §1

encorafenib = compound: COC(=O)N[C@@H](C)CNc1nccc(-c2cn(C(C)C)nc2-c2cc(Cl)cc(NS(C)(=O)=O)c2F)n1 [encorafenib]
Outline: as §1

[3] = compound: COC(=O)[C@H](CCSC)NC(=O)C1=C(C=C(C=C1)NC[C@H](CS)N)C2=CC=CC=C2
Outline: as §1

alisertib = compound: COc1cc(Nc2ncc3c(n2)-c2ccc(Cl)cc2C(c2c(F)cccc2OC)=NC3)ccc1C(=O)O [alisertib]
Outline: as §1

[4] = compound: COc1cc2nc(-c3cc(F)ccc3O)nc(N[C@@H]3CNC[C@H]3C(C)(C)O)c2cc1OC
Outline: as §1

gefitinib = compound: COc1cc2ncnc(Nc3ccc(F)c(Cl)c3)c2cc1OCCCN1CCOCC1 [gefitinib]
Outline: as §1

lapatinib = compound: CS(=O)(=O)CCNCc1ccc(-c2ccc3ncnc(Nc4ccc(OCc5cccc(F)c5)c(Cl)c4)c3c2)o1 [lapatinib]
Outline: as §1

pictilisib = compound: CS(=O)(=O)N1CCN(Cc2cc3nc(-c4cccc5[nH]ncc45)nc(N4CCOCC4)c3s2)CC1 [pictilisib]
Outline: as §1

crizotinib = compound: C[C@@H](Oc1cc(-c2cnn(C3CCNCC3)c2)cnc1N)c1c(Cl)ccc(F)c1Cl [crizotinib]
Outline: as §1

[5] = compound: C[C@H](C1=CC=C(C=C1)C(=O)NC2=C3C=CNC3=NC=C2)N
Outline: as §1

duvelisib = compound: C[C@H](Nc1ncnc2nc[nH]c12)c1cc2cccc(Cl)c2c(=O)n1-c1ccccc1 [duvelisib]
Outline: as §1

gandotinib = compound: Cc1cc(Nc2cc(CN3CCOCC3)c3nc(C)c(Cc4ccc(Cl)cc4F)n3n2)n[nH]1 [gandotinib]
Outline: as §1

tozasertib = compound: Cc1cc(Nc2cc(N3CCN(C)CC3)nc(Sc3ccc(NC(=O)C4CC4)cc3)n2)n[nH]1 [tozasertib]
Outline: as §1

doramapimod = compound: Cc1ccc(-n2nc(C(C)(C)C)cc2NC(=O)Nc2ccc(OCCN3CCOCC3)c3ccccc23)cc1 [doramapimod]
Outline: as §1

bafetinib = compound: Cc1ccc(NC(=O)c2ccc(CN3CC[C@H](N(C)C)C3)c(C(F)(F)F)c2)cc1Nc1nccc(-c2cncnc2)n1 [bafetinib]
Outline: as §1

[6] = compound: Cc1cccc(CC(=O)N2CCc3c2ccc(-c2cn(C)c4ncnc(N)c24)c3F)n1
Outline: as §1

Target | log2 fold change (alvocidib) | log2 fold change (Tubastatin A) | log2 fold change [1] | log2 fold change (defactinib) | log2 fold change [2] | log2 fold change (encorafenib) | log2 fold change [3] | log2 fold change (alisertib) | log2 fold change [4] | log2 fold change (gefitinib) | log2 fold change (lapatinib) | log2 fold change (pictilisib) | log2 fold change (crizotinib) | log2 fold change [5] | log2 fold change (duvelisib) | log2 fold change (gandotinib) | log2 fold change (tozasertib) | log2 fold change (doramapimod) | log2 fold change (bafetinib) | log2 fold change [6]
GGCT (UniProt O75223) | inactive: -0.019 | inactive: 0.033 | inactive: 0.014 | inactive: -0.039 | inactive: 0.002 | inactive: -0.021 | inactive: -0.059 | inactive: -0.013 | inactive: 0.009 | inactive: -0.053 | inactive: 0.014 | inactive: 0.022 | inactive: 0 | inactive: -0.024 | inactive: -0.01 | inactive: 0.062 | inactive: -0.001 | inactive: 0.034 | inactive: -0.016 | inactive: -0.008
GK (UniProt P32189) | inactive: -0.016 | inactive: -0.019 | inactive: 0.013 | inactive: -0.035 | inactive: -0.065 | inactive: 0.008 | inactive: -0.01 | inactive: 0.047 | inactive: -0.013 | inactive: 0.064 | inactive: -0.016 | inactive: -0.009 | inactive: 0.021 | inactive: -0.022 | inactive: 0.027 | inactive: 0.055 | inactive: 0.007 | inactive: 0.048 | inactive: -0.038 | inactive: 0.022
GPHN isoform 2 (UniProt Q9NQX3) | inactive: 0.001 | inactive: 0.041 | inactive: 0.022 | inactive: 0.037 | inactive: -0.005 | inactive: 0.027 | inactive: -0.005 | inactive: -0.009 | inactive: -0.005 | inactive: 0.005 | inactive: -0.001 | inactive: -0.007 | inactive: 0.012 | inactive: -0.026 | inactive: 0.027 | inactive: 0.033 | inactive: 0.02 | inactive: 0.002 | inactive: 0.001 | inactive: 0.008
GMEB2 (UniProt Q9UKD1) | inactive: -0.019 | inactive: 0.023 | inactive: 0.018 | inactive: 0.001 | inactive: 0.054 | inactive: -0.023 | inactive: 0.007 | inactive: -0.054 | inactive: -0.008 | inactive: 0.058 | inactive: 0.089 | inactive: 0.021 | inactive: -0.01 | inactive: 0.006 | inactive: 0.116 | inactive: -0.026 | inactive: 0.004 | inactive: -0.008 | inactive: 0.014 | inactive: -0.015
GINS4 (UniProt Q9BRT9) | inactive: -0.004 | inactive: -0.009 | inactive: 0.006 | inactive: 0.026 | inactive: -0.026 | inactive: 0.021 | inactive: 0.029 | inactive: 0.03 | inactive: -0.014 | inactive: 0.02 | inactive: 0.016 | inactive: -0.041 | inactive: 0.03 | inactive: 0.008 | inactive: -0.014 | inactive: -0.03 | inactive: -0.018 | inactive: 0.016 | inactive: 0.014 | inactive: -0.005
GOLGA7 (UniProt Q7Z5G4) | inactive: -0.033 | inactive: -0.01 | inactive: -0.022 | inactive: 0.016 | inactive: -0.064 | inactive: -0.002 | inactive: -0.042 | inactive: 0.043 | inactive: 0 | inactive: 0.049 | inactive: 0.006 | inactive: -0.062 | inactive: 0.012 | inactive: -0.04 | inactive: 0.009 | inactive: -0.017 | inactive: -0.003 | inactive: 0.036 | inactive: -0.062 | inactive: 0.004
GOLGB1 (UniProt Q14789) | inactive: 0.027 | inactive: 0.014 | inactive: 0.029 | inactive: 0.011 | inactive: -0.002 | inactive: 0.015 | inactive: 0.041 | inactive: 0.029 | inactive: -0.003 | inactive: 0 | inactive: -0.007 | inactive: -0.028 | inactive: -0.053 | inactive: -0.024 | inactive: -0.014 | inactive: -0.008 | inactive: 0.008 | inactive: 0.024 | inactive: -0.032 | inactive: 0.043
GNA11 (UniProt P29992) | inactive: -0.008 | inactive: 0.026 | inactive: -0.004 | inactive: 0 | inactive: -0.065 | inactive: 0.051 | inactive: -0.023 | inactive: 0.011 | inactive: 0.017 | inactive: 0.022 | inactive: -0.005 | inactive: -0.045 | inactive: -0.004 | inactive: -0.052 | inactive: 0.023 | inactive: -0.001 | inactive: 0.068 | inactive: 0.009 | inactive: -0.013 | inactive: 0.066
GOLGA1 (UniProt Q92805) | inactive: -0.027 | inactive: 0.051 | inactive: 0.035 | inactive: -0.017 | inactive: 0.011 | inactive: 0.028 | inactive: -0.093 | inactive: -0.017 | inactive: -0.18 | inactive: -0.024 | active: -0.406 | inactive: 0.007 | inactive: 0.012 | inactive: 0.056 | inactive: -0.101 | inactive: 0.024 | inactive: -0.087 | inactive: 0.001 | inactive: -0.066 | inactive: -0.025
GLG1 isoform 2 (UniProt Q92896) | inactive: -0.013 | inactive: 0.047 | inactive: 0.003 | inactive: 0.04 | inactive: 0.01 | inactive: 0.014 | inactive: -0.073 | inactive: -0.011 | inactive: 0.009 | inactive: 0.055 | inactive: -0.021 | inactive: -0.025 | inactive: 0.05 | inactive: -0.006 | inactive: -0.011 | inactive: 0.027 | inactive: 0.016 | inactive: 0.008 | inactive: 0.034 | inactive: -0.013
GNPDA2 (UniProt Q8TDQ7) | inactive: 0.076 | inactive: -0.05 | inactive: -0.017 | inactive: -0.02 | inactive: -0.029 | inactive: -0.068 | inactive: -0.006 | inactive: -0.003 | inactive: 0.009 | inactive: 0.012 | inactive: 0.003 | inactive: -0.051 | inactive: 0.024 | inactive: 0.009 | inactive: 0.031 | inactive: -0.023 | inactive: 0.035 | inactive: -0.012 | inactive: 0.106 | inactive: -0.008
GNL3 (UniProt Q9BVP2) | inactive: 0.023 | inactive: 0.008 | inactive: 0.055 | inactive: -0.002 | inactive: 0.038 | inactive: 0.014 | active: 0.252 | inactive: -0.006 | inactive: 0.033 | inactive: -0.029 | inactive: -0.058 | inactive: -0.018 | inactive: -0.134 | inactive: 0.097 | inactive: 0.004 | inactive: -0.115 | inactive: -0.013 | inactive: 0.039 | inactive: -0.128 | inactive: -0.031
GLCCI1 (UniProt Q86VQ1) | inactive: -0.004 | inactive: -0.043 | inactive: -0.022 | inactive: -0.059 | inactive: 0.026 | inactive: -0.019 | inactive: 0.16 | inactive: -0.05 | inactive: -0.012 | inactive: -0.019 | inactive: 0.041 | inactive: 0.015 | inactive: -0.055 | inactive: 0.013 | inactive: -0.044 | inactive: 0.049 | inactive: 0.278 | inactive: 0 | inactive: 0.046 | inactive: 0.097
GGA3 (UniProt Q9NZ52) | inactive: 0.007 | inactive: -0.027 | inactive: 0.001 | inactive: 0.019 | inactive: -0.143 | inactive: 0.083 | inactive: -0.01 | inactive: 0.023 | inactive: 0 | inactive: 0.038 | inactive: 0.02 | inactive: 0 | inactive: -0.042 | inactive: -0.023 | inactive: 0 | inactive: -0.012 | inactive: 0.074 | inactive: 0.034 | inactive: 0.047 | inactive: 0.053
GLYR1 (UniProt Q49A26) | inactive: 0.013 | inactive: -0.007 | inactive: -0.046 | inactive: -0.084 | inactive: -0.078 | inactive: -0.001 | inactive: 0.074 | inactive: -0.011 | inactive: -0.046 | inactive: -0.093 | inactive: 0.053 | inactive: 0.045 | inactive: -0.058 | inactive: 0.019 | inactive: -0.079 | inactive: 0.045 | inactive: -0.044 | inactive: 0.11 | inactive: -0.042 | inactive: -0.04
GPR108 (UniProt Q9NPR9) | inactive: -0.068 | inactive: -0.034 | inactive: 0.075 | inactive: 0 | inactive: 0.014 | inactive: 0.11 | inactive: -0.066 | inactive: 0.001 | inactive: 0.047 | inactive: 0.002 | inactive: 0.022 | inactive: 0.03 | inactive: -0.01 | inactive: -0.121 | inactive: -0.043 | active: 0.237 | inactive: 0.024 | inactive: 0.04 | inactive: 0.044 | inactive: -0.043

Some values from the results shown.
log2 fold change [5], GNPDA2 (UniProt Q8TDQ7) is entered as inactive: 0.009
log2 fold change (alisertib), GLG1 isoform 2 (UniProt Q92896) is entered as inactive: -0.011
